Source: the supplement of paper PMC8728848
This is one part of the list.

Tests used:
Test in all cases: glycan array binding signal (z-score within array); higher = stronger binding
Conditions in all cases: glycan notation: IUPAC condensed, linker removed
GlcNAc(b1-6)GalNAc = target: GlcNAc(b1-6)GalNAc
Summary of the method: (§1)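 Glycan array data were curated from 3228 arrays in the Consortium for Functional Glycomics database and kept only where the protein sequence was available. Glycan names were converted to IUPAC-condensed notation, and columns mapping to the same glycan were averaged. The binding signal is a within-array Z-score, averaged across arrays of the same protein sequence at different concentrations or buffers and across linkers. Negative Z-scores can be read as non-binding.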

GlcNAc3Prop(b1-4)GlcNAc = target: GlcNAc3Prop(b1-4)GlcNAc
Summary of the method: as §1

[1] = target: GlcNAc6S(b1-3)Gal(b1-4)GlcNAc
Summary of the method: as §1

Kdn(a2-3)Gal(b1-3)GalNAc = target: Kdn(a2-3)Gal(b1-3)GalNAc
Summary of the method: as §1

Kdn(a2-3)Gal(b1-3)GlcNAc = target: Kdn(a2-3)Gal(b1-3)GlcNAc
Summary of the method: as §1

Kdn(a2-3)Gal(b1-4)Glc = target: Kdn(a2-3)Gal(b1-4)Glc
Summary of the method: as §1

Kdn(a2-3)Gal(b1-4)GlcNAc = target: Kdn(a2-3)Gal(b1-4)GlcNAc
Summary of the method: as §1

[2] = target: Kdn(a2-3)Gal(b1-4)[Fuc(a1-3)]GlcNAc
Summary of the method: as §1

Kdn(a2-6)Gal(b1-4)GlcNAc = target: Kdn(a2-6)Gal(b1-4)GlcNAc
Summary of the method: as §1

[3] = target: Man(a1-2)Man(a1-2)Man(a1-3)Man
Summary of the method: as §1

[4] = target: Man(a1-2)Man(a1-2)Man(a1-6)[Man(a1-3)]Man
Summary of the method: as §1

Man(a1-2)Man(a1-3)Man = target: Man(a1-2)Man(a1-3)Man
Summary of the method: as §1

[5] = target: Man(a1-2)Man(a1-3)[Man(a1-2)Man(a1-6)]Man
Summary of the method: as §1

[6] = target: Man(a1-2)Man(a1-3)[Man(a1-2)Man(a1-6)]Man(a1-6)[Man(a1-2)Man(a1-2)Man(a1-3)]Man
Summary of the method: as §1

[7] = target: Man(a1-2)Man(a1-3)[Man(a1-2)Man(a1-6)]Man(a1-6)[Man(a1-2)Man(a1-2)Man(a1-3)]Man(b1-4)GlcNAc(b1-4)GlcNAc
Summary of the method: as §1

[8] = target: Man(a1-2)Man(a1-3)[Man(a1-6)]Man(a1-6)[Man(a1-2)Man(a1-3)]Man(b1-4)GlcNAc(b1-4)GlcNAc
Summary of the method: as §1

[9] = target: Man(a1-2)Man(a1-6)[Man(a1-3)]Man(a1-6)[Man(a1-2)Man(a1-2)Man(a1-3)]Man
Summary of the method: as §1

[10] = target: Man(a1-2)Man(a1-6)[Man(a1-3)]Man(a1-6)[Man(a1-2)Man(a1-2)Man(a1-3)]Man(b1-4)GlcNAc(b1-4)GlcNAc
Summary of the method: as §1

Man(a1-3)[Man(a1-6)]Man = target: Man(a1-3)[Man(a1-6)]Man
Summary of the method: as §1

[11] = target: Man(a1-3)[Man(a1-6)]Man(a1-6)[Man(a1-2)Man(a1-3)]Man(b1-4)GlcNAc(b1-4)GlcNAc
Summary of the method: as §1

[12] = target: Man(a1-3)[Man(a1-6)]Man(a1-6)[Man(a1-3)]Man
Summary of the method: as §1

[13] = target: Man(a1-3)[Man(a1-6)]Man(a1-6)[Man(a1-3)]Man(b1-4)GlcNAc(b1-4)GlcNAc
Summary of the method: as §1

[14] = target: Man(a1-3)[Man(a1-6)]Man(b1-4)GlcNAc(b1-4)GlcNAc
Summary of the method: as §1

Man(a1-6)Man = target: Man(a1-6)Man
Summary of the method: as §1

Man(b1-4)GlcNAc = target: Man(b1-4)GlcNAc
Summary of the method: as §1

Neu5Ac(a2-3)Gal = target: Neu5Ac(a2-3)Gal
Summary of the method: as §1

[15] = target: Neu5Ac(a2-3)Gal(b1-3)GalNAc
Summary of the method: as §1

[16] = target: Neu5Ac(a2-3)Gal(b1-3)GalNAc(b1-3)Gal(a1-4)Gal(b1-4)Glc
Summary of the method: as §1

[17] = target: Neu5Ac(a2-3)Gal(b1-3)GalNAc(b1-4)[Neu5Ac(a2-3)]Gal(b1-4)Glc
Summary of the method: as §1

[18] = target: Neu5Ac(a2-3)Gal(b1-3)GalNAc(b1-4)[Neu5Ac(a2-8)Neu5Ac(a2-3)]Gal(b1-4)Glc
Summary of the method: as §1

[19] = target: Neu5Ac(a2-3)Gal(b1-3)GalNAc6S
Summary of the method: as §1

[20] = target: Neu5Ac(a2-3)Gal(b1-3)GlcNAc
Summary of the method: as §1

[21] = target: Neu5Ac(a2-3)Gal(b1-3)GlcNAc(b1-3)Gal(b1-3)GlcNAc
Summary of the method: as §1

[22] = target: Neu5Ac(a2-3)Gal(b1-3)GlcNAc(b1-3)Gal(b1-4)GlcNAc
Summary of the method: as §1

[23] = target: Neu5Ac(a2-3)Gal(b1-3)GlcNAc(b1-3)GalNAc
Summary of the method: as §1

[24] = target: Neu5Ac(a2-3)Gal(b1-3)GlcNAc6S
Summary of the method: as §1

[25] = target: Neu5Ac(a2-3)Gal(b1-3)[Fuc(a1-4)]GlcNAc
Summary of the method: as §1

B1: Intelectin 1 (Homo sapiens), Q8WWA0 (protein)
chain: MNQLSFLLFLIATTRGWSTDEANTYFKEWTCSSSPSLPRSCKEIKDECPSAFDGLYFLRTENGVIYQTFCDMTSGGGGWTLVASVHENDMRGKCTVGDRWSSQQGSKAVYPEGDGNWANYNTFGSAEAATSDDYKNPGYYDIQAKDLGIWHVPNKSPMQHWRNSSLLRYRTDTGFLQTLGHNLFGIYQKYPVKYGEGKCWTDNGPVIPVVYDFGDAQKTASYYSPYGQREFTAGFVQFRVFNNERAANALCAGMRVTGCNTEHHCIGGGGYFPEASPQQCGDFSGFDWSGYGTHVGYSSSREITEAAVLLFYR
Q: With B1 as the binder, how does the “glycan array binding signal (z-score)” value (GlcNAc(b1-6)GalNAc) read?
A: -0.353

Q: What about the “glycan array binding signal (z-score)” value (GlcNAc3Prop(b1-4)GlcNAc) of the same binder?
A: -0.496

Q: And the “glycan array binding signal (z-score)” value [1]?
A: -0.014

Q: And the “glycan array binding signal (z-score)” value (Kdn(a2-3)Gal(b1-3)GalNAc)?
A: -0.099

Q: And the “glycan array binding signal (z-score)” value (Kdn(a2-3)Gal(b1-3)GlcNAc)?
A: 0.228

Q: What about the “glycan array binding signal (z-score)” value (Kdn(a2-3)Gal(b1-4)Glc) of the same binder?
A: 0.5

Q: What about the “glycan array binding signal (z-score)” value (Kdn(a2-3)Gal(b1-4)GlcNAc) of the same binder?
A: 0.657

Q: And the “glycan array binding signal (z-score)” value [2]?
A: -0.345

Q: And the “glycan array binding signal (z-score)” value (Kdn(a2-6)Gal(b1-4)GlcNAc)?
A: -0.805

Q: What about the “glycan array binding signal (z-score)” value [3] of the same binder?
A: 1.53

Q: And the “glycan array binding signal (z-score)” value [4]?
A: -0.031

Q: What about the “glycan array binding signal (z-score)” value (Man(a1-2)Man(a1-3)Man) of the same binder?
A: -0.057

Q: What about the “glycan array binding signal (z-score)” value [5] of the same binder?
A: -0.138

Q: And the “glycan array binding signal (z-score)” value [6]?
A: -0.313

Q: And the “glycan array binding signal (z-score)” value [7]?
A: -0.295

Q: What about the “glycan array binding signal (z-score)” value [8] of the same binder?
A: -0.195

Q: What about the “glycan array binding signal (z-score)” value [9] of the same binder?
A: 0.182

Q: And the “glycan array binding signal (z-score)” value [10]?
A: -0.909

Q: What about the “glycan array binding signal (z-score)” value (Man(a1-3)[Man(a1-6)]Man) of the same binder?
A: 0.039

Q: What about the “glycan array binding signal (z-score)” value [11] of the same binder?
A: -0.453

Q: What about the “glycan array binding signal (z-score)” value [12] of the same binder?
A: -0.368

Q: What about the “glycan array binding signal (z-score)” value [13] of the same binder?
A: -0.432

Q: And the “glycan array binding signal (z-score)” value [14]?
A: -0.39

Q: And the “glycan array binding signal (z-score)” value (Man(a1-6)Man)?
A: 0.134

Q: And the “glycan array binding signal (z-score)” value (Man(b1-4)GlcNAc)?
A: -0.207

Q: And the “glycan array binding signal (z-score)” value (Neu5Ac(a2-3)Gal)?
A: -0.392

Q: And the “glycan array binding signal (z-score)” value [15]?
A: -0.389

Q: And the “glycan array binding signal (z-score)” value [16]?
A: -0.779

Q: What about the “glycan array binding signal (z-score)” value [17] of the same binder?
A: 0.339

Q: And the “glycan array binding signal (z-score)” value [18]?
A: 0.491

Q: What about the “glycan array binding signal (z-score)” value [19] of the same binder?
A: 0.034

Q: And the “glycan array binding signal (z-score)” value [20]?
A: -0.17

Q: And the “glycan array binding signal (z-score)” value [21]?
A: -0.36

Q: And the “glycan array binding signal (z-score)” value [22]?
A: 0.545

Q: What about the “glycan array binding signal (z-score)” value [23] of the same binder?
A: -0.18

Q: What about the “glycan array binding signal (z-score)” value [24] of the same binder?
A: -0.891

Q: What about the “glycan array binding signal (z-score)” value [25] of the same binder?
A: 0.274
